## Library screen at single concentrations

Data taken from ChEMBL document CHEMBL3988442, “University of Dundee, Small-Polar-MMV Screening Library” (2021).

Each number is a percent effect as filed. How 0% and 100% were set is not recorded. Most values in the screen are low, and negative values occur. Compounds were drawn at random from those tested, without regard to their results.

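Whole-parasite assay of Trypanosoma brucei over 72 hours; the read-out is not stated. Tested at 30 µM. Direction is inferred from retests: higher values go with stronger inhibition. Values scatter widely below zero; nearly all retest evidence comes from the higher of the two concentrations used. About 64,000 compounds were tested under these conditions; 1.5% (about 940) showed 50% or more at least once.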

- CC(Cn1cccn1)NCc1csc(-c2cccs2)n1 (stereo not shown) : -22.81%
- CC(C)c1nc2n(n1)CC(NCc1nc(-c3cccnc3)no1)CC2 (stereo not shown) : -93.3%
- O=C(c1cccnc1O)N1CCC(COc2ccccc2)CC1 : -32.26%
- CN(CC(N)=O)CC(=O)N(C1=CCCCC1)C1CC1 : 6.698%
- Cc1nn(C)c(C)c1CNC1CCOc2ccccc21 (stereo not shown) : -23.96%
- O=C1CCC2(CCCN(C(=O)c3cnccn3)CC2)N1 (stereo not shown) : -12.6%
- Cn1cc(N2CC3(CCN(Cc4nccs4)CC3)OCC2=O)cn1.O=C(O)C(F)(F)F : -19%
- O=C(NCC1(N2CCOCC2)CCSC1)Nc1cn[nH]c1 (stereo not shown) : -27.58%
- COC(CNC(=O)c1ccc(NC(C)=O)cc1)c1cccc(Cl)c1 (stereo not shown) : -57.72%
- COC(=O)C(C)N(Cc1cc(C)on1)C1CC1 (stereo not shown) : -25.24%
- Cc1cc(N2CCC(N(C)Cc3cccnc3)C2=O)n(C)n1 (stereo not shown) : -38.22%
- COc1c(CNCCC(=O)Nc2cccc(C)n2)c(C)nn1C : -58.24%
- Cc1nc(CN(Cc2cccnc2)Cc2ccsc2)c[nH]1 : 12.54%
- Cc1nccn1C1CCCN(C(=O)c2ccc3c(c2)nc(C)n3C)C1 (stereo not shown) : -15.37%
- Cc1ncccc1NS(=O)(=O)Cc1cccc(F)c1 : -3.604%
- CNC(=O)NC(=O)CCN1CCN(c2ccc(C(=O)OC)cc2)CC1C (stereo not shown) : -8.802%
- OCC1CCCN1c1cc(NCc2ccccn2)ncn1 (stereo not shown) : -21.5%
- CC(C)n1cnc(-c2nc(C(=O)NC3CC3)c3ccccn23)c1 : 7.178%
- CCC(C)NC(=O)c1nnn(-c2ccc(Br)cc2)n1 (stereo not shown) : -4.128%
- COc1ccc(CN2CC[C@H](c3nc4cccc(C(N)=O)c4[nH]3)C2)cc1 : 14.79%
- CC(C)NC(=O)CC1CC2(CCN(CC3CC3)CC2)Oc2ccccc21.O=C(O)C(F)(F)F (stereo not shown) : -16.68%
- CCOCC1CN(C(=O)N2CCCC2)Cc2cnn(CC)c21 (stereo not shown) : -10.6%
- COc1ccccc1NC(=O)c1[nH]nc(C(C)C)c1Br : -9.686%
- CCc1nc(C(=O)N2CCOCC2)nn1-c1ccccc1Cl : 19.75%
- c1cc2nc(C3CCNCC3)nn2cc1NC1CCC1 : -38.08%
- OCC(O)CSCc1cn(-c2ccc(Cl)cc2)nn1 (stereo not shown) : 3.557%
- CC(=O)N1CCC(Nc2ccc(Br)cc2C#N)C1 (stereo not shown) : -9.68%
- Clc1ccccc1Cc1noc(CN2CCCC(CN3CCCC3)C2)n1 (stereo not shown) : -18.17%
- COCC(=O)NCCCn1nc2ccccn2c1=O : -23.29%

Some entries from above, unchanged:

compound	Percent Effect
OCC1CCCN1c1cc(NCc2ccccn2)ncn1 (stereo not shown)	-21.5
COC(CNC(=O)c1ccc(NC(C)=O)cc1)c1cccc(Cl)c1 (stereo not shown)	-57.72